For the assay, the system named is Sprague Dawley rats.

For the compound `COc1cc2c(cc1OC)C(=O)C(CC1CCN(Cc3ccccc3)CC1)C2` (centres unmarked) [donepezil, reference compound], the “number of "good learners" (Δ≧5 sec.)” value (1 mg/kg i.p.) is listed as “confirmed the cognitive enhancing activity”. Besides, the “procognitive activity (natural forgetting)” value (1 mg/kg, i.p., 30 min before T1, positive reference) is “displayed a clear procognitive activity”.

(Values after patent US8906925B2, “Pyrido[4,3-B]indoles containing rigid moieties” (Medivation Technologies, Inc., priority 2008, dated 2014).)
